Assay results: PubChem BioAssay AID588590 (National Center for Advancing Translational Sciences (NCATS), 2011)
Shown are results outside the selection of hits, which stands elsewhere. Results filed as inconclusive are left out. Calls of active or inactive are those of the source. Calls come from the whole dose curve; as a rule, active = well fitted inhibition curve with a large enough effect; inconclusive = small, poorly fitted or top-dose-only effect, or another doubt; inactive = no such curve, though single readings can be large or run the other way.

By UniProt entry, the sequences of proteins in these tests, tags left out. Where a name states a change or a piece, a line headed by the entry shows the natural chain unless it says otherwise.
UniProt Q9UNA4: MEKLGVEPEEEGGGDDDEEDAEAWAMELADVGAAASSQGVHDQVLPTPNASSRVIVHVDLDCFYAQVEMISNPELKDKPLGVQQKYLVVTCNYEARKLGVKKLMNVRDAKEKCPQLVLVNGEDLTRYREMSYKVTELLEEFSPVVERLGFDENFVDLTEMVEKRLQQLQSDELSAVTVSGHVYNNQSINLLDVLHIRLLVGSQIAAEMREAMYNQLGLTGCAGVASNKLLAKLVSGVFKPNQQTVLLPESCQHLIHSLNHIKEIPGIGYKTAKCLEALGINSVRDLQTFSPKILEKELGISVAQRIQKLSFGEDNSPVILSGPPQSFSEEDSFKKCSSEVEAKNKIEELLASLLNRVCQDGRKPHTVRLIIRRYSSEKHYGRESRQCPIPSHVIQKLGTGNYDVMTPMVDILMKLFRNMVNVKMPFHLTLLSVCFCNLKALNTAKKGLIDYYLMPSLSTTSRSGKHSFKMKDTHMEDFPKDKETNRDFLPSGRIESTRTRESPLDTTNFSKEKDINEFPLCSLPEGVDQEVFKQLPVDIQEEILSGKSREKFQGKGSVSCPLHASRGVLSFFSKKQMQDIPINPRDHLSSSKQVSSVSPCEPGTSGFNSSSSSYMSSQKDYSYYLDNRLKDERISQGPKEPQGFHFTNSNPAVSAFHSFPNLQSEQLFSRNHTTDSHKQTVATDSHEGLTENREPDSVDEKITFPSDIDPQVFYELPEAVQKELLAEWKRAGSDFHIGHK

Molecular target: DNA polymerase iota (Homo sapiens) (UniProt Q9UNA4)
Experiment: qHTS for Inhibitors of Polymerase Iota
Settings: Pol iota fluorescent replication assay, 10 min; at 115 µM (top of the series)
Excerpt: DNA polymerases, such as Pol iota, are specifically involved in DNA repair. Pol iota specifically plays an important role in translesion synthesis, where the normal high-fidelity DNA polymerases cannot proceed and DNA synthesis stalls. […] Thus, while pol eta's (and most likely iota's) normal function is to protect humans against the deleterious consequences of DNA damage, under certain conditions they can have deleterious effects on human health. As a consequence, we propose to utilize a high throughput replication assay to identify small molecule inhibitors of pol iota.
In a collaboration between the National Institute of Child Health & Human Development (NICHD) and NIH Chemical Genomics Center, a high-throughput, fluorescent screen was developed to screen the NIH Molecular Libraries Small Molecule Repository (MLSMR). This screen is used to identify inhibitors of pol iota.
NIH Chemical Genomics Center [NCGC]
NIH Molecular Libraries Probe Centers Network [MLPCN]
Assay Submitter (PI): Roger Woodgate, NICHD)
Three microliters of reagents (buffer in column 3 and 4 as negative control and 10 nM Pol iota in columns 1, 2, and 5-48) will be dispensed into 1,536-well black solid-bottomed plate. Compounds (23 nL) will be transferred via Kalypsys pin tool equipped with 1536-pin array. The plates will then be incubated for 15 min at room temperature, and 1 µL substrate (50 nM final concentration) will be added to start the reaction and kinetically read twice at 0 min and 10 min on the Viewlux reader.

activity, negative = inhibition, inactive:
O=C(C=Cc1ccccc1)Nc1ccccc1 74.2%
CNC1CCc2cc(OC)c(OC)c(OC)c2-c2ccc(SC)c(=O)cc21 (centres undefined) 17.1%
Cc1cc(=O)oc2cc(OCc3ccccc3)ccc12 91.7%
CS(=O)(=O)Nc1cccc2[nH]ncc12 68.1%
